Experimental data reported in patent US8431583B2, “Use of purine derivatives for the manufacture of a medicament” (Centre National de la Recherche Scientifique, priority 2007, dated 2013).

Assays:
[1] = biological target: CK1δ/e; experiment: Kinase assay CK1; details: read-out: IC50 CK1; 15 μM ATP, 30° C., buffer A
[2] = biological target: GSK-3 α/β; experiment: Kinase assay GSK-3α/β; assay type: biochemical, pig; details: 15 μM ATP, 30° C., buffer A, GS-1 substrate
Experimental: After incubating at 30° C. for 30 min, 25 μl aliquots of supernatant were deposited on 2.5×3 cm pieces of Whatman P8 phosphocellulose papers and then, 20 sec. later, the filters were washed 5 times in a solution of 10 ml of phosphoric acid/liter. The filters are subsequently counted in the presence of 1 ml of ACS (Amersham).
The mean inhibitory concentration IC50 values were calculated from the dose/response curves and are listed in μM in the following table I.

[3] = tested on: B2 lymphocytes originating from patients; experiment: Induction of cell death of B chronic lymphoid leukemia cells (B2 lymphocytes) from patients; assay type: cell-based; details: Homo sapiens, Lymphocyte, read-out: Induction of cell death (IC50)
Experimental: The B2 lymphocytes are lymphocytes involved in […] chronic lymphoid leukemia.
Cell viability is determined by the reduction of 3-(4,5-dimethylthiazol-2-yl)-5-(3-carboxymethoxyphenyl)-2-(4-sulfophenyl)-2H-tetrazolium (MTS).
Cell death is determined by the measurement of the level of the activity of the lactate dehydrogenase (LDH) released during lysis of the cells. The two processes are described in detail in “Ribas J. and Boix J. Cell differentiation, caspase inhibition, and macromolecular synthesis blockage, but not BCL-2 or BCL-XL proteins protect SH-SY5Y cells from apoptosis triggered by two CDK inhibitory drugs.
In table 2, the values shown are the mean inhibitory concentration IC50 values, expressed in μM.

SMILES: CC[C@H](CO)Nc1nc(NCc2ccccc2)c2ncn(C(C)C)c2n1 [(R)-Roscovitine, reference compound]
- IC50 [1]: 4 µM
- IC50 [2]: 60 µM
- IC50 [3]: 8.96 µM
